In the supplement of paper PMC12282887:
Values are raw readings; no control value is given beside them.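 The top concentration was set near the MIC for antimicrobials, at 500 µM for most other compounds, and up to 1 mM for known inducer-like compounds. Deletion strains started from a tenfold smaller inoculum, and wells growing below 10% of the overall median were treated as non-growing.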

System: Escherichia coli BW25113
Assay: growth (OD600 area under curve, 8 h) (OD600 x h); higher = more growth
Procedure: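 E. coli BW25113 reporter strains (wild type, ΔmarA, ΔsoxS, Δrob, each carrying one of 8 lux reporter plasmids) were grown in 40 µl LB in 384-well plates at 37°C, 800 rpm, with each compound at 4 two-fold concentrations, in biological duplicates. Growth is the baseline-corrected OD600 area under the curve over 8 h (0-8 h WT, 1-9 h deletion strains).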

C[C@]12CCC(=O)C=C1CC[C@@H]1[C@@H]2[C@@H](O)C[C@@]2(C)[C@H]1CC[C@]2(O)C(=O)CO [Hydrocortisone]
growth
Conditions | reporter plasmid: EVC | reporter plasmid: acrABp | reporter plasmid: marRABp | reporter plasmid: micFp | reporter plasmid: ompFp | reporter plasmid: robp | reporter plasmid: soxSp | reporter plasmid: tolCp
22.7 µg/ml, genetic background: wild type | 3.41 | 3.5 | 3.5 | 3.26 | 3.27 | 3.539 | 3.33 | 3.31
22.7 µg/ml, genetic background: ΔmarA | 3.96 | 4.73 | 4.25 | 3.83 | 3.87 | 4.55 | 3.82 | 3.76
22.7 µg/ml, genetic background: Δrob | 3.27 | 3.27 | 3.68 | 3.48 | 2.99 | 3.11 | 3.34 | 3.61
22.7 µg/ml, genetic background: ΔsoxS | 3.61 | 3.79 | 3.51 | 3.4 | 3.43 | 3.67 | 3.63 | 3.63
45.3 µg/ml, genetic background: wild type | 3.178 | 3.48 | 3.496 | 3.16 | 3.23 | 3.409 | 3.08 | 3.19
45.3 µg/ml, genetic background: ΔmarA | 3.61 | 4.48 | 4.09 | 3.63 | 3.71 | 4.31 | 3.49 | 3.63
45.3 µg/ml, genetic background: Δrob | 3.27 | 3.03 | 3.48 | 3.27 | 2.79 | 2.68 | 3.19 | 3.41
45.3 µg/ml, genetic background: ΔsoxS | 3.482 | 3.63 | 3.29 | 3.04 | 3.29 | 3.23 | 3.47 | 3.4
90.6 µg/ml, genetic background: wild type | 3.262 | 3.25 | 3.44 | 3.19 | 3.23 | 3.57 | 3.18 | 3.23
90.6 µg/ml, genetic background: ΔmarA | 3.59 | 4.17 | 4.12 | 3.73 | 3.78 | 4.29 | 3.58 | 3.6042
90.6 µg/ml, genetic background: Δrob | 3.32 | 3.48 | 3.6 | 3.32 | 2.94 | 3.16 | 3.11 | 3.4
90.6 µg/ml, genetic background: ΔsoxS | 3.47 | 3.68 | 3.65 | 3.16 | 3.3 | 3.54 | 3.47 | 3.421
181.2 µg/ml, genetic background: wild type | 3.1 | 3.24 | 3.27 | 3.07 | 3.4 | 3.45 | 3.15 | 3.18
181.2 µg/ml, genetic background: ΔmarA | 3.39 | 4.34 | 3.88 | 3.57 | 3.67 | 4.24 | 3.39 | 3.38
181.2 µg/ml, genetic background: Δrob | 3.3 | 3.1 | 3.47 | 3.27 | 2.91 | 2.91 | 3.04 | 3.26
181.2 µg/ml, genetic background: ΔsoxS | 3.38 | 3.56 | 3.39 | 3.2 | 3.09 | 3.22 | 3.32 | 3.35

C[C@@H](O)[C@H]1C(=O)N2C(C(=O)O)=C(SCCNC=N)C[C@H]12 [Imipenem]
growth
Conditions | reporter plasmid: EVC | reporter plasmid: acrABp | reporter plasmid: marRABp | reporter plasmid: micFp | reporter plasmid: ompFp | reporter plasmid: robp | reporter plasmid: soxSp | reporter plasmid: tolCp
0.02 µg/ml, genetic background: wild type | 2.9 | 2.86 | 3.22 | 3.22 | 2.92 | 3.2 | 3.01 | 3.15
0.02 µg/ml, genetic background: ΔmarA | 3.58 | 4.3 | 3.76 | 3.4 | 3.48 | 3.75 | 3.17 | 3.03
0.02 µg/ml, genetic background: Δrob | 2.82 | 2.75 | 3.4 | 3.27 | 2.76 | 2.65 | 3.01 | 3.3
0.02 µg/ml, genetic background: ΔsoxS | 3.12 | 3.17 | 3.19 | 2.6 | 2.8 | 2.87 | 3.09 | 2.96
0.04 µg/ml, genetic background: wild type | 2.9 | 2.82 | 3.246 | 3.21 | 2.89 | 3.12 | 2.99 | 3.09
0.04 µg/ml, genetic background: ΔmarA | 3.5 | 4.22 | 3.7 | 3.5 | 3.63 | 4.07 | 3.05 | 3.13
0.04 µg/ml, genetic background: Δrob | 2.78 | 2.67 | 3.55 | 3.29 | 2.58 | 2.78 | 2.72 | 3.09
0.04 µg/ml, genetic background: ΔsoxS | 2.94 | 2.9 | 3.2 | 2.6 | 2.66 | 2.91 | 3 | 2.86
0.079 µg/ml, genetic background: wild type | 2.91 | 2.8 | 3.357 | 3.24 | 3.06 | 3.28 | 3.071 | 3.2
0.079 µg/ml, genetic background: ΔmarA | 3.48 | 4.3 | 3.91 | 3.62 | 3.72 | 3.9 | 3.22 | 3.12
0.079 µg/ml, genetic background: Δrob | 2.62 | 2.9 | 3.55 | 3.21 | 2.72 | 2.5 | 3.02 | 3.15
0.079 µg/ml, genetic background: ΔsoxS | 3 | 3.12 | 3.15 | 2.669 | 2.59 | 2.88 | 2.89 | 3.03
0.16 µg/ml, genetic background: wild type | 2.78 | 2.91 | 3.27 | 2.93 | 2.82 | 3.03 | 2.999 | 2.98
0.16 µg/ml, genetic background: ΔmarA | 3.35 | 4 | 3.71 | 3.31 | 3.48 | 3.88 | 2.88 | 3.06
0.16 µg/ml, genetic background: Δrob | 2.86 | 2.607 | 3.26 | 2.93 | 2.6 | 2.44 | 2.84 | 3.02
0.16 µg/ml, genetic background: ΔsoxS | 2.78 | 2.71 | 2.99 | 2.15 | 2.5 | 2.73 | 2.74 | 2.91
